At least one structure is not confirmed: it was looked up by name or label, or the drawing left a doubt.
Key:
USP28 = molecular target: T1, USP28 (Homo sapiens, UniProt Q96RU2); assay: USP28 activity by the ubiquitin-rhodamine 110 (Ub-Rh110) method; format: biochemical; conditions: comparator: Comparative compound 5
T1 construct: purchased R&D Systems China Co., Ltd. (R&D Systems)
T1 sequence (Q96RU2 1-1077): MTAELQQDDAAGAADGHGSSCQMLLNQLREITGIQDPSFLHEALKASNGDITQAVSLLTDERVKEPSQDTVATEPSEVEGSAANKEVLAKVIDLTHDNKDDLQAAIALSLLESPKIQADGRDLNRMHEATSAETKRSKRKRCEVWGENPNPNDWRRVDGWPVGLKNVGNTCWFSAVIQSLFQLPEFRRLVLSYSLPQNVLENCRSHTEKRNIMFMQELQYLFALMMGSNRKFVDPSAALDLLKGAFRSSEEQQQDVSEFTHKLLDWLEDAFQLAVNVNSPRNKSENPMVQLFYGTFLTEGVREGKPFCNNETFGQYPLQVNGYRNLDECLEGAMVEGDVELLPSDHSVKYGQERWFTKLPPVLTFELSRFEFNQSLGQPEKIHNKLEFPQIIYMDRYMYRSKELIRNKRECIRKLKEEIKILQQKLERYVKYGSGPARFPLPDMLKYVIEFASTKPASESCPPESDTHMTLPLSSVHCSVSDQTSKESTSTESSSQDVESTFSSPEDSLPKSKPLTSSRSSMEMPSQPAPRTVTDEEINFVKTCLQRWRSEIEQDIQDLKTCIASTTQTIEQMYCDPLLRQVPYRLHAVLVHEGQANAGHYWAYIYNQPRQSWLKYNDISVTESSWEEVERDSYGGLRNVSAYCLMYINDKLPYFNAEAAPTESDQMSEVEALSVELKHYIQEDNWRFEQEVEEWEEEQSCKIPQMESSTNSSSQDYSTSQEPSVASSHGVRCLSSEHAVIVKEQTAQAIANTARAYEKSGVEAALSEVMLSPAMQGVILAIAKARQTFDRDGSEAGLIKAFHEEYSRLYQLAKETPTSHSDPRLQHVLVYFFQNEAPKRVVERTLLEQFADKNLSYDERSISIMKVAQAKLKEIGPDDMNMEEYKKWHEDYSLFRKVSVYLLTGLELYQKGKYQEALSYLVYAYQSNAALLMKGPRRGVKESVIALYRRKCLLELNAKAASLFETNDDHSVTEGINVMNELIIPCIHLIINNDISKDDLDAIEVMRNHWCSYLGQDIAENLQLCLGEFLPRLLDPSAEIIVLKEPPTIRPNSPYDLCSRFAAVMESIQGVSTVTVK
Experimental: USP28 activity was determined by the ubiquitin-rhodamine 110 (Ub-Rh110) method.
Purified USP28 and a substrate Ub-Rh110 used for determining deubiquitinase activity were purchased from R&D Systems China Co., Ltd. (R&D Systems). First, test compounds were each dissolved in DMSO to prepare a 10 mM stock solution, and then the stock solution was diluted to the desired concentration (with a DMSO content of 0.5%) with a buffer solution [containing 20 mM Tris-HCl (pH 8.0), 2 mM CaCl2), 3 mM BME, 0.01% Prionex, and 0.01% Triton X-100]. The prepared test compound solutions at different concentrations were mixed uniformly with USP28 (final concentration: 4 nM) in a 96-well plate, and the mixture was incubated at r. t. for 30 min before the addition of Ub-Rh110 to 125 nM. The final volume of the whole reaction system was 20 μL. The released fluorescence (excitation wavelength: 485 nm, emission wavelength: 535 nm) was detected immediately on a microplate reader after the addition of the substrate. […] The inhibitory rates of the test compounds for USP28 were calculated according to the following formula:
Inhibition %=(1−[(fluorescence valuetest compound−fluorescence valuesubstrate)/(fluorescence valuecontrol−fluorescence valuesubstrate])×100%
According to the inhibitory rates of the test compounds for USP28 under different concentrations, IC50 values were calculated. […]

USP25 = molecular target: T2, USP25 (Homo sapiens, UniProt Q9UHP3); assay: USP25 activity by the Ub-Rh110 method; format: biochemical; conditions: comparator: Comparative compound 5
T2 construct: purchased R&D Systems
T2 sequence (Q9UHP3 1-1055): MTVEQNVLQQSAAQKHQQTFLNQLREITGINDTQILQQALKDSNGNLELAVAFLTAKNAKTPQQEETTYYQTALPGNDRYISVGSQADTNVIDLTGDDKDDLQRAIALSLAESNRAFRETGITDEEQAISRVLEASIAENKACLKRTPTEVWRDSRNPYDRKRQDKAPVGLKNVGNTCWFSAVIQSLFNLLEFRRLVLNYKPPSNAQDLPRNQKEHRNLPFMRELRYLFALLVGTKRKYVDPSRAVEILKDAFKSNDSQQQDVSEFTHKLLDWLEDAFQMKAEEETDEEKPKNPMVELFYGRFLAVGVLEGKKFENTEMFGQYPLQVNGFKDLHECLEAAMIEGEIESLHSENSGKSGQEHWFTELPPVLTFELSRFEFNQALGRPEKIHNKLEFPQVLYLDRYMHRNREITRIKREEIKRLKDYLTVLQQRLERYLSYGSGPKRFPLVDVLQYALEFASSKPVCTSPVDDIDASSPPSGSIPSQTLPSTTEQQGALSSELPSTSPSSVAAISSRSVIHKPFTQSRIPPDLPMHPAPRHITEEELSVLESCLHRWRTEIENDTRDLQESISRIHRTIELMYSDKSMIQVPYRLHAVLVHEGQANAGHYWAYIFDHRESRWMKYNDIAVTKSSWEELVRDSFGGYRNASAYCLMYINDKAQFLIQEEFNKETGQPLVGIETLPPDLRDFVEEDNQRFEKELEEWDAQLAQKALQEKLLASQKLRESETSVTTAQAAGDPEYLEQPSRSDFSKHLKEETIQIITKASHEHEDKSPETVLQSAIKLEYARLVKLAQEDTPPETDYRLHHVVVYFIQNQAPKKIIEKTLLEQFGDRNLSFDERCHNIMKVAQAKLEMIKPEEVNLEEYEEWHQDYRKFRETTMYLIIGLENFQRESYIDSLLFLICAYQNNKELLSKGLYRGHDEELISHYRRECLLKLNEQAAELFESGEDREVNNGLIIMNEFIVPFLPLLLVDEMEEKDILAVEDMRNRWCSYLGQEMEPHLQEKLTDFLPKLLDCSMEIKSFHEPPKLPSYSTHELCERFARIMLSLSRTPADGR
Experimental: USP25 activity was determined by the Ub-Rh110 method.
Purified USP25 was purchased from R&D Systems. The experimental procedures were the same as those in Example 2. The final concentration of USP25 was 15 nM, the final concentration of the substrate Ub-Rh110 was 125 nM, and the final volume of the whole reaction system was 20 μL.
With reference to Example 2 and Example 3, USP28 and USP25 inhibitor activity tests were performed on representative example compounds of the present disclosure and the following comparative compound structures.

CCn1ccc2c(NC)c(C(=O)N[C@H]3COc4cc(N5CC6CCC(C5)N6)ccc4C3)cnc21 [Compound I-23]
USP28 Inhibitory activity ratio (IC50 of the comparative compound/IC50 of the compound of the present disclosure) (USP28): 54.53 | USP25 Inhibitory activity ratio (IC50 of the comparative compound/IC50 of the compound of the present disclosure) (USP25): 109.14

Source: patent US20250289829A1, “DEUBIQUITINASE INHIBITOR AND USE THEREOF” (CHASER THERAPEUTICS, INC., priority 2022, published 2025)
